Measurements from patent US10167313B2, “Selective caspase inhibitors and uses thereof” (Genesis Technologies Limited, priority 2008, dated 2019).
“And” between values parts separate entries of the source, which are not always exact repeats. Equal entries are not always repeated. For at least one compound, name, drawing or mass did not settle the structure.

Chains of the proteins cited; added tags and fusions are not shown. Residues count along the entry.
UniProt P29466, 317-404: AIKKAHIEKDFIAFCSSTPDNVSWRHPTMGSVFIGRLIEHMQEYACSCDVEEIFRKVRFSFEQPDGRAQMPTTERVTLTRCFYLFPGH
UniProt P29466, 120-297: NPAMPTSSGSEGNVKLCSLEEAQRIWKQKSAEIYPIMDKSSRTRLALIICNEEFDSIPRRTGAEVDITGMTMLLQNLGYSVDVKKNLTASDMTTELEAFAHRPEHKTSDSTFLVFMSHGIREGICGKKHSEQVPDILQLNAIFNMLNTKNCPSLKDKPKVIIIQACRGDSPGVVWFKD
UniProt P55210, 24-198: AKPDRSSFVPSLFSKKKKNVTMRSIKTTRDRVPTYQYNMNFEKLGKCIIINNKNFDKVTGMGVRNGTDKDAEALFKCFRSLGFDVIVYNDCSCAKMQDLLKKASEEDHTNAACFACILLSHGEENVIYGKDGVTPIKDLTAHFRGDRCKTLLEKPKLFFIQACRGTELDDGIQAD
UniProt P55210, 207-303: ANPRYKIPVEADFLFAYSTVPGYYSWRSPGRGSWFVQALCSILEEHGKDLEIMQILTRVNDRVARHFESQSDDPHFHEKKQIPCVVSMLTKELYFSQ

Legend:
caspase-1 = caspase-1 (Homo sapiens (Human), UniProt P29466); assay: Caspase-1 Inhibitor Drug Screening Kit, fluorometric enzymatic assay; settings: read-out: Caspase enzymatic activity, IC50 (uM) Caspase 1; 30-minute incubation at 37° C., AFC liberation
Hela cells = assay: Inhibition of proteolytic cleavage of PARP in staurosporine-treated live Hela cells; type: cell-based; settings: staurosporine 4 hours, control value printed in the row of each test compound
Description: To test the efficacy of caspase-3 inhibitors at the cellular level, the ability of selected compounds to inhibit the proteolytic cleavage of PARP (poly ADP-ribose polymerase) was evaluated in live Hela cells.
Briefly, in this assay Hela cells are seeded in 96 well plates and incubated for 4 hours with staurosporine, a well characterized inducer of apoptosis, alone or together with different concentrations of compound (50, 25, 10 and 3 uM). After formaldehyde-based fixation, the cells are stained with a fluorescein-labeled anti-cleaved PARP antibody (Cell signaling, Cat#: 9547) and counterstained with Hoechst33342 (Invitrogen, Cat#: H3570) to mark all nuclei. Fluorescence images are taken on a Cellomics™ microscope system (Thermo Scientific, Pittsburgh, USA) with the Hoechst stain in the blue channel and the cleaved PARP antibody stain in the green channel. The percentage of cleaved PARP positive cells is determined by calculating the ratio between nuclei with a cleaved PARP antibody staining above a certain threshold and all (Hoechst positive) nuclei. The efficacy of caspase-3 inhibition is determined by calculating the ratio between cleaved PARP positive cells after staurosporine incubation together with compounds and staurosporine incubation without compounds.

caspase-7 = caspase-7 (Homo sapiens (Human), UniProt P55210); assay: Caspase-7 Inhibitor Drug Screening Kit, fluorometric enzymatic assay; settings: read-out: Caspase enzymatic activity, IC50 (uM) Caspase 7; 30-minute incubation at 37° C., AFC liberation

SMILES: COC(=O)CC[C@H](NC(=O)[C@H](CC(=O)OC)NC(=O)OCc1ccccc1)C(=O)N[C@H](C(=O)N[C@@H](CC(=O)OC)C(=O)CF)C(C)C [DEVD-fmk, reference compound]
- IC50 (caspase-1): 0.4 µM
- % inhibition of PARP cleavage at 50 uM DEVDFMK (positive control) (Hela cells): 70% and 80% and 65% and 75% and 90% and 60%
- IC50 (caspase-7): 1 µM
